These results are taken from patent US20190111164A1.

This assay deals with dBSM (bovine). The experiment in a line: ELISA on model antigens (Tn-PAA, sTN-PAA, Tn-cluster, dBSM).

Results are given in words; binding and its absence hold for the method and conditions named. Binding can be weak; no strength is given.

B1: 2F3 variant #6 (antibody, IgG1, V domains shown)
VH: QVQLLESGGGLVQPGGSLRLSCAASGFTFDSYAMSWVRQAPGKGLEWVSAISGSGASTYYADSVKGRFSISRDNSKNTLYLQMNSLRAEDTAVYYCAIRREYSGYAPFDYWGQGTLVIVSS
VL: DIVMTQTPSSLSASVGDRVTITCRASQGISSWLAWYQQKPEKAPRSLIYAASSLQSGVPSRFSGSGSGTDFTLTISSLQPEDFATYYCQQYISYPYTFGQGTKLEIK
Take B1: the binding entry is listed as “binds”.
